PubChem BioAssay AID1259290 – Sanger Institute | 2017
In all, the deposit lists 794 reagents; this is a random part of them. 9 of all reagents (1.1%) were called active. 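Calls rest on knock-down alone, not drug synergy; synergy above 0.15 was grouped apart and does not affect calls.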 A number with no mark means an inactive call. Not all columns of the deposit are shown. The record does not give: the amount of reagent, the time to read-out.

Test: 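siRNA screen across the kinome seeking synthetic lethal partners for BYL719, cetuximab or trametinib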 (primary screen)
Cell system: human SNUC1 colorectal cancer cells
Reagents: siRNA pool against human genes
Conditions: anchor drugs BYL719 1 µM, cetuximab 5 µg/ml or trametinib 10 nM, or DMSO vehicle alone
Detection: 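Cell viability relative to a non-targeting siRNA control, replicate-averaged, as robust z-score for knock-down alone, plus a synergy score for each anchor drug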
Reading the numbers: viability z-score, siRNA alone: higher = more viable cells; low values mean essential gene
Rule for the call: 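Essential when the robust viability z-score with siRNA alone falls below -3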
Meaning of the calls: active = essential: knock-down alone cut viability (z below -3); inactive = no clear viability loss with knock-down alone

What is on record for PRKAA1 (protein kinase AMP-activated catalytic subunit alpha 1) [SID152155693]?
viability z-score, siRNA alone: -2.16

For CAD [SID152152923], how do the results read?
viability z-score, siRNA alone: 0.31

What is on record for DAPK3 (death associated protein kinase 3) [SID56478935]?
viability z-score, siRNA alone: -1.85

For STK17B (serine/threonine kinase 17b) [SID56478762], what does the deposit list?
viability z-score, siRNA alone: -1.94

Which result is listed for EXOSC10 (exosome component 10) [SID152152402]?
viability z-score, siRNA alone: -0.997

With ACVR1C (activin A receptor type 1C) [SID135620908], what was measured?
viability z-score, siRNA alone: 0.936

What did the screen give for ELP1 (elongator acetyltransferase complex subunit 1) [SID56479224]?
viability z-score, siRNA alone: 0.779

For RIOK2 (RIO kinase 2) [SID134310711], what was measured?
viability z-score, siRNA alone: -0.247

Which result is listed for ADGRL2 (adhesion G protein-coupled receptor L2) [SID152152166]?
viability z-score, siRNA alone: -0.73

How did the screen score CKS1B (CDC28 protein kinase regulatory subunit 1B) [SID56478807]?
viability z-score, siRNA alone: -0.393

For CDKN2D (cyclin dependent kinase inhibitor 2D) [SID135620643], what does the deposit list?
viability z-score, siRNA alone: -1.02

With TSSK1B (testis specific serine kinase 1B) [SID56478967], how do the results read?
viability z-score, siRNA alone: -0.802

With CLK3 (CDC like kinase 3) [SID56478875], how do the results read?
viability z-score, siRNA alone: 0.458

With CDK15 (cyclin dependent kinase 15) [SID56478852], how do the results read?
viability z-score, siRNA alone: -1.34

How did the screen score STK32A (serine/threonine kinase 32A) [SID152151517]?
viability z-score, siRNA alone: 0.936

How did the screen score PDK4 (pyruvate dehydrogenase kinase 4) [SID152155412]?
viability z-score, siRNA alone: 0.841

With CASP8 (caspase 8) [SID135620682], what does the deposit list?
viability z-score, siRNA alone: 0.936

With SLK (STE20 like kinase) [SID56478731], what does the deposit list?
viability z-score, siRNA alone: 0.936

What did the screen give for CSNK1A1L (casein kinase 1 alpha 1 like) [SID135620867]?
viability z-score, siRNA alone: 0.936
